This is one part of the list.
Experiments:
Test in all cases: log2 fold change, soluble protein after heating vs DMSO (PISA); higher = thermal stabilisation; K562 lysate, 10 uM; active = over 0.2 and 3.5 SD of the protein, either way, in both replicates (recomputed)
[1] = compound: Cc1cn(-c2cc(NC(=O)c3ccc(C)c(Nc4nccc(-c5cccnc5)n4)c3)cc(C(F)(F)F)c2)cn1 [nilotinib]
How it was run: (§1)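 A 30 min treatment with 10 μM compound was applied to crude K562 extract at 1 mg/mL protein in PBS pH 7.4 with 1 mM MgCl2. Heating for 3 min spanned 48°C-58°C, after which aliquots were pooled, adjusted to 0.5% NP-40 at 4°C and spun at 21,000xg for 90 min. TMTpro 16plex LC-MS/MS of the supernatant, with channel sums equalised, gave values recorded as log-two fold change in thermal stability against solvent controls, from duplicates.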

Sequences of proteins named here, by UniProt entry; tags and fusion partners are left off. A change or cut given only in a name is not applied to a line headed by its entry.
UniProt Q15155: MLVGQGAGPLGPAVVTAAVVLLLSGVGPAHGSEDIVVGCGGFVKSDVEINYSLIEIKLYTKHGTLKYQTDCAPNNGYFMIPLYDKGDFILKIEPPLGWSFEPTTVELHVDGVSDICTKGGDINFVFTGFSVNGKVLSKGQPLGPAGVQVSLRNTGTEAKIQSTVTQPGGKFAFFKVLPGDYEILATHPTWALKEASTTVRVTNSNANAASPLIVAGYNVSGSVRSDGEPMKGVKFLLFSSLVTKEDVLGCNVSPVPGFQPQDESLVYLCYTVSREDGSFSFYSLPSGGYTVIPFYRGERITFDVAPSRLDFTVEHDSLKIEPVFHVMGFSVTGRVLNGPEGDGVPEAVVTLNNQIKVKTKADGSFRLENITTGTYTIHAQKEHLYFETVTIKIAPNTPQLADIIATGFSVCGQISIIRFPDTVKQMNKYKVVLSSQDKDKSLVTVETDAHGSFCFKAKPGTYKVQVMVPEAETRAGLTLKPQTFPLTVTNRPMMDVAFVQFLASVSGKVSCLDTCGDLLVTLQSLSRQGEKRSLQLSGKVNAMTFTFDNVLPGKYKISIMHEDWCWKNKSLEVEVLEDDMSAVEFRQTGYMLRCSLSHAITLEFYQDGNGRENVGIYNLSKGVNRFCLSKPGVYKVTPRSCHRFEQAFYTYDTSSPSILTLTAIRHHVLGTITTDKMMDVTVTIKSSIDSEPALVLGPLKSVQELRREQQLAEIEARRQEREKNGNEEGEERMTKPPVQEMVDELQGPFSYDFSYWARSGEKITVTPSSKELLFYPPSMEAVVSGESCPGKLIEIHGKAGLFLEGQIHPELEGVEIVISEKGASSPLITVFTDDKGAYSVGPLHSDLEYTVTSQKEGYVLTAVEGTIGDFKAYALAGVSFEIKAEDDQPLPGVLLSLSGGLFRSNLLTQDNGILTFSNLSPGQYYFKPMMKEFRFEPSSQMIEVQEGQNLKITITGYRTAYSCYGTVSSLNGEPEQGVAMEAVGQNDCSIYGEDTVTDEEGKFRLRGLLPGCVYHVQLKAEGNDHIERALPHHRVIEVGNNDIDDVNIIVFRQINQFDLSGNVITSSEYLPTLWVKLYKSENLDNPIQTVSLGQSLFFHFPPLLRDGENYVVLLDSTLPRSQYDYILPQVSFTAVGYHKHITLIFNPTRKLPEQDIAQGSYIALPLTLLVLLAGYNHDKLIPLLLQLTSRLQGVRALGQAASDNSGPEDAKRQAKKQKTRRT
UniProt P30419: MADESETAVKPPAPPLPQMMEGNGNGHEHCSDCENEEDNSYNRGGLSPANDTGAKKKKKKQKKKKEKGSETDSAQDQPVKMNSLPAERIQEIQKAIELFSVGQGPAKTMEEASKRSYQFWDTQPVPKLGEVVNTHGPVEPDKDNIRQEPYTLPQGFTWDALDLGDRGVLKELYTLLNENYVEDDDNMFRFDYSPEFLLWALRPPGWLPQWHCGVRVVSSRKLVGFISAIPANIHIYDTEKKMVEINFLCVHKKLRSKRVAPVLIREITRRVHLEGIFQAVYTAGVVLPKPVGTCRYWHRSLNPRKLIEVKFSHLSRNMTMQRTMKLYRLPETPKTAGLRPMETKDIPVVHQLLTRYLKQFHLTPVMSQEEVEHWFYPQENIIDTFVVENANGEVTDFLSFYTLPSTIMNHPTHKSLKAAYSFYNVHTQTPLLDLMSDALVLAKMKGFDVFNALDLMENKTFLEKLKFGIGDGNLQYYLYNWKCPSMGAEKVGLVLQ
UniProt Q9Y639: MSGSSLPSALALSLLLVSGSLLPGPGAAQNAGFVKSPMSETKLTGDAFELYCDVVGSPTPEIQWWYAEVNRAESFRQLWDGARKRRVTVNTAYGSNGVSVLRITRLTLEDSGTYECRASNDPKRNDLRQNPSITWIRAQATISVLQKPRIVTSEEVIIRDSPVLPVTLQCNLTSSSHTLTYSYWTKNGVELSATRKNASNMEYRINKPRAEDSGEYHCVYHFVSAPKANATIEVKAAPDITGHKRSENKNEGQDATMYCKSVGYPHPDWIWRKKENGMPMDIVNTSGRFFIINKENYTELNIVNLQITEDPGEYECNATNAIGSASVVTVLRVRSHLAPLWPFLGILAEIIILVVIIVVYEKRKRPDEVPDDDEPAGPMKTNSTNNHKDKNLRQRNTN
UniProt P49757: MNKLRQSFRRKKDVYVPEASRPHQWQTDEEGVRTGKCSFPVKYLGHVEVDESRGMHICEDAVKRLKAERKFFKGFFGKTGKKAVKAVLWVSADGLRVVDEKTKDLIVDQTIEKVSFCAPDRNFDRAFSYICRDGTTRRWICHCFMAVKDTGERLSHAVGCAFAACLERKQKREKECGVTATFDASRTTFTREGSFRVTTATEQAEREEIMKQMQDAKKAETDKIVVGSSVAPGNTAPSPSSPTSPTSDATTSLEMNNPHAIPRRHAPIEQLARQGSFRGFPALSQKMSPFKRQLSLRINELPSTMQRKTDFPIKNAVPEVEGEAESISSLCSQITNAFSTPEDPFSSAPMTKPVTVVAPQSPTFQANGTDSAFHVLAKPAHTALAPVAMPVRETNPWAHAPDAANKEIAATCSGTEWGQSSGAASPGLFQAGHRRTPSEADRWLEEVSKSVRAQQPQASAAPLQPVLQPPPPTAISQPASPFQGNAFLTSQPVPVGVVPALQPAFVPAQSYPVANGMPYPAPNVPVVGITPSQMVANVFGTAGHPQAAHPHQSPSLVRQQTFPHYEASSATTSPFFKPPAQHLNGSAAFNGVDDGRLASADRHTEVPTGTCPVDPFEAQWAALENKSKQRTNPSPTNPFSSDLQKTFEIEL
UniProt Q9NPE3: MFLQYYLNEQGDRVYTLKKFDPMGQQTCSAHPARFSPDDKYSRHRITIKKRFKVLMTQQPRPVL
UniProt Q92636: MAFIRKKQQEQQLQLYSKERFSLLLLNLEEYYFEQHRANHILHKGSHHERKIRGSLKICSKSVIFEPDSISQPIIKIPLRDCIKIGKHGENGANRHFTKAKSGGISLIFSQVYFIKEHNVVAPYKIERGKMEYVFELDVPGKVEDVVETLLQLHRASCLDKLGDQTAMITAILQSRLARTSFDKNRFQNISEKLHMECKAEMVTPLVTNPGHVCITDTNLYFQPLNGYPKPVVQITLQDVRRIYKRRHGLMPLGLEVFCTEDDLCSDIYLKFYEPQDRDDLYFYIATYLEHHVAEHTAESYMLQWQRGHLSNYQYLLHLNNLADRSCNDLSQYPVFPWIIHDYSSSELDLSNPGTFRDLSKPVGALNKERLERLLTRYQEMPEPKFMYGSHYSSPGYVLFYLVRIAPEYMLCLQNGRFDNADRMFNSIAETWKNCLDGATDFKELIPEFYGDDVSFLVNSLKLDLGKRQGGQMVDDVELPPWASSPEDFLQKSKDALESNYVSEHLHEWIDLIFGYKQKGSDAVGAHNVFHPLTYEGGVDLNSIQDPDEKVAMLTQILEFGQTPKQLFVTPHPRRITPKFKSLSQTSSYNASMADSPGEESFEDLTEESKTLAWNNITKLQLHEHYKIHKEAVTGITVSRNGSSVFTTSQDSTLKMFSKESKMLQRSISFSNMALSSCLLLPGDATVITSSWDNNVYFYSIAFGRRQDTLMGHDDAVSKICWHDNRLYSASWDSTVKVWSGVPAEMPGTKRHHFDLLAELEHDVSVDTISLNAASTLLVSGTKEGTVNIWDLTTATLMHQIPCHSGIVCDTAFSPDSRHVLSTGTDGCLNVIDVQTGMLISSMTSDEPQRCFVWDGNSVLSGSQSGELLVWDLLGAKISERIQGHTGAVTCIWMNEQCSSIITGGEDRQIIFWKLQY
UniProt Q13232: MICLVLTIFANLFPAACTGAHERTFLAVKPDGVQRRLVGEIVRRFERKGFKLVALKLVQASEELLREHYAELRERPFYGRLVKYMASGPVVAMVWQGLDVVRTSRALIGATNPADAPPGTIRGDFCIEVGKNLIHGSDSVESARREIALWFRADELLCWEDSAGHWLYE
UniProt P06748, whole entry, looked up: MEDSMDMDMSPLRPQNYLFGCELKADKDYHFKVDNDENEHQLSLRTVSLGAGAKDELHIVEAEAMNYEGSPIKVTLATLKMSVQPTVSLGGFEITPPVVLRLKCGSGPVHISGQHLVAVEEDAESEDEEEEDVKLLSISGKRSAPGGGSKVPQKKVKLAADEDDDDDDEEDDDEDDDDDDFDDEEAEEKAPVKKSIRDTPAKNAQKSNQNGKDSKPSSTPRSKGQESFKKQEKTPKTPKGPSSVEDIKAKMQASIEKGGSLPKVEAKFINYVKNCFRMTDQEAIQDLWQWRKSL
UniProt P22392, whole entry, looked up: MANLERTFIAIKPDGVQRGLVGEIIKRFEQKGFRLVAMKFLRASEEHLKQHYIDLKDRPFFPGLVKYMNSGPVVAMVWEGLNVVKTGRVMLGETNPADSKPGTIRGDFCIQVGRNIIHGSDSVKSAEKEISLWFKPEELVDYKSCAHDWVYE
UniProt Q8WV22: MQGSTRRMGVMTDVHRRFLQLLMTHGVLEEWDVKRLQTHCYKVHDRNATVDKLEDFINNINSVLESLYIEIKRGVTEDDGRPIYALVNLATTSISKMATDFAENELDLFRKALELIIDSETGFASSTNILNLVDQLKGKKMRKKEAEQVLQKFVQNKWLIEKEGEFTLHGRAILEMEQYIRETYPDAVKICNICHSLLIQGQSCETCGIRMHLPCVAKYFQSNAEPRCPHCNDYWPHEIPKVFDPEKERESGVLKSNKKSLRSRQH
UniProt Q9UMY1: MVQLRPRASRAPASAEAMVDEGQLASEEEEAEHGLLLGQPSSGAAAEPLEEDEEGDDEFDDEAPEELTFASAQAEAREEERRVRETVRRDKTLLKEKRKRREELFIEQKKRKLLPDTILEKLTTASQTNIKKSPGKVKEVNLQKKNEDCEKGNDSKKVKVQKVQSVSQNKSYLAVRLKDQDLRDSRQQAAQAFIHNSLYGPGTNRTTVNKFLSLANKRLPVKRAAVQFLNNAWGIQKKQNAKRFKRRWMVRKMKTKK
UniProt Q9BRJ7: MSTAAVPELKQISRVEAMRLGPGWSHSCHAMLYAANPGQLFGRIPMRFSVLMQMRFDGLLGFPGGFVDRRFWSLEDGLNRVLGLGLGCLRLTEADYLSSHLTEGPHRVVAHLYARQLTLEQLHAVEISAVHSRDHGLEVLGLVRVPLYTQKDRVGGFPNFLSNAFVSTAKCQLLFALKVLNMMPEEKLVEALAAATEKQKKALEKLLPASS
UniProt P49902: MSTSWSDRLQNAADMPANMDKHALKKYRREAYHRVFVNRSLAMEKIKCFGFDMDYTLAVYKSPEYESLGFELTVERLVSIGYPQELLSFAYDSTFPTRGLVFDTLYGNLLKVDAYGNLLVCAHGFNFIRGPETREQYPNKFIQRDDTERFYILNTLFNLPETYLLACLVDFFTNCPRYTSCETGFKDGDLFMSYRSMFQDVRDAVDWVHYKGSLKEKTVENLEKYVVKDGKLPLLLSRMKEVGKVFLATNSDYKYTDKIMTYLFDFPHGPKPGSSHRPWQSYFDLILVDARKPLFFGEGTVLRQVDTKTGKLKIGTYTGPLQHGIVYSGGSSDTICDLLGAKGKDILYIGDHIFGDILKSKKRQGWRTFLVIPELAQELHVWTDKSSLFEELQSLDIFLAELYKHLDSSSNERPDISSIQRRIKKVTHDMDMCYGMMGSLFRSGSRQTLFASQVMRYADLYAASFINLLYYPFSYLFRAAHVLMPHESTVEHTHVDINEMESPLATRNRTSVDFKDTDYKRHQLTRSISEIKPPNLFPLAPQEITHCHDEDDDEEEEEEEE
UniProt Q9NSY0: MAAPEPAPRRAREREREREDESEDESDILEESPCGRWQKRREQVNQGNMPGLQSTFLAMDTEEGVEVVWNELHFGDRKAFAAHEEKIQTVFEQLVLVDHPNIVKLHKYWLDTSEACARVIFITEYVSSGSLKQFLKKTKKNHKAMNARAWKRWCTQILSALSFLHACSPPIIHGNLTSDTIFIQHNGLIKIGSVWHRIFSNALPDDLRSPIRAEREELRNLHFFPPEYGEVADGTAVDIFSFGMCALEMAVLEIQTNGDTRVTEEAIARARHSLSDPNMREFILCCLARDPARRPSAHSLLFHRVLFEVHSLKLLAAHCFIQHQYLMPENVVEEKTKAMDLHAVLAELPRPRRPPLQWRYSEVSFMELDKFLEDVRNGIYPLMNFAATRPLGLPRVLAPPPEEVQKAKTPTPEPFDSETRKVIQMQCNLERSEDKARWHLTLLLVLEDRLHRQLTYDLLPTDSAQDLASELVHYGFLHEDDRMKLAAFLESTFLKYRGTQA
UniProt Q96CB9: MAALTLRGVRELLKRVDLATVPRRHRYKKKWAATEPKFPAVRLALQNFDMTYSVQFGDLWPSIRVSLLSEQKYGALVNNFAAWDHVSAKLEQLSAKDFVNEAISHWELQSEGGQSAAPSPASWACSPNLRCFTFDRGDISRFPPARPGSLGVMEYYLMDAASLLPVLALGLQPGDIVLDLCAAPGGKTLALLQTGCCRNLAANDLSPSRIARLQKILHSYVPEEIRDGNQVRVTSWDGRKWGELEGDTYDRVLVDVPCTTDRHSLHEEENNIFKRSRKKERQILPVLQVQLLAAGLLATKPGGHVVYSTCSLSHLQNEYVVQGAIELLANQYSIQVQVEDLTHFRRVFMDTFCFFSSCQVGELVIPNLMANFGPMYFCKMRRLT

[2] = compound: Cc1nc(Nc2n[nH]c3c2CN(C(=O)N[C@H](CN(C)C)c2ccccc2)C3(C)C)c2sccc2n1
How it was run: as §1

[3] = compound: Cc1nc(Nc2ncc(C(=O)Nc3c(C)cccc3Cl)s2)cc(N2CCN(CCO)CC2)n1 [dasatinib]
How it was run: as §1

[4] = compound: Cc1ncc(-c2ccnc(Nc3ccc(S(C)(=O)=O)cc3)n2)n1C(C)C
How it was run: as §1

[5] = compound: Cn1cc(-c2ccc3c(c2)CCN3C(=O)Cc2cccc(C(F)(F)F)c2)c2c(N)ncnc21
How it was run: as §1

[6] = compound: Cn1cc(CNCC2CCN(c3ncc(C(=O)NO)cn3)CC2)c2ccccc21 [quisinostat]
How it was run: as §1

[7] = compound: Cn1cncc1[C@@](N)(c1ccc(Cl)cc1)c1ccc2c(c1)c(-c1cccc(Cl)c1)cc(=O)n2C [tipifarnib]
How it was run: as §1

[8] = compound: NC(=O)Nc1cc(-c2cccc(F)c2)sc1C(=O)N[C@H]1CCCNC1
How it was run: as §1

[9] = compound: NC(=O)c1cnc(N[C@@H]2CCCC[C@@H]2N)nc1Nc1cccc(-n2nccn2)c1
How it was run: as §1

[10] = compound: NC1(c2ccc(-c3nc4ccn5c(=O)[nH]nc5c4cc3-c3ccccc3)cc2)CCC1
How it was run: as §1

Measured: log2 fold change

NOMO1 (UniProt Q15155)
inactive: [1] 0.084 | [2] -0.058 | [3] -0.161 | [4] -0.04 | [5] -0.02 | [6] 0.011 | [7] 0.224 | [8] -0.055 | [9] 0.028 | [10] 0.007

NMT1 (UniProt P30419)
inactive: [1] -0.037 | [2] 0.044 | [3] 0.058 | [4] -0.016 | [5] -0.022 | [6] -0.065 | [7] 0.001 | [8] 0.007 | [9] -0.005 | [10] -0.057

NPTN (UniProt Q9Y639)
inactive: [1] -0.029 | [2] 0.005 | [3] -0.06 | [4] -0.025 | [5] -0.009 | [6] -0.038 | [7] 0.043 | [8] 0.031 | [9] 0.004 | [10] 0.002

NUMB (UniProt P49757)
inactive: [1] -0.03 | [2] -0.024 | [3] -0.072 | [4] -0.008 | [5] 0.001 | [6] -0.02 | [7] 0.001 | [8] -0.029 | [9] -0.026 | [10] 0.003

NTPCR (UniProt Q9BSD7)
inactive: [1] 0.019 | [2] -0.01 | [3] -0.061 | [4] 0.056 | [5] 0.032 | [6] -0.088 | [7] 0.003 | [8] 0.028 | [9] 0.017 | [10] -0.027

NOP10 (UniProt Q9NPE3)
inactive: [1] -0.067 | [2] -0.044 | [3] 0.027 | [4] -0.018 | [5] 0.022 | [6] 0.04 | [7] 0.062 | [8] -0.03 | [9] 0.027 | [10] 0.075

NOL10 (UniProt Q9BSC4)
inactive: [1] -0.17 | [2] -0.096 | [3] -0.025 | [4] 0.022 | [5] 0.077 | [6] 0.006 | [7] 0.038 | [8] 0.019 | [9] 0.007 | [10] 0.175

NNMT (UniProt P40261)
inactive: [1] -0.044 | [2] -0.01 | [3] 0.058 | [4] 0.03 | [5] 0.003 | [6] -0.145 | [7] -0.008 | [8] 0.004 | [9] 0.035 | [10] -0.033

NPEPPS (UniProt P55786)
inactive: [1] 0.01 | [2] 0.005 | [3] 0.01 | [4] 0.008 | [5] 0.007 | [6] 0.001 | [7] 0.001 | [8] -0.001 | [9] -0.003 | [10] 0.012

NME2P1 (UniProt O60361)
inactive: [1] -0.121 | [2] -0.037 | [3] -0.016 | [4] -0.09 | [5] 0.039 | [6] -0.629 | [7] -0.076 | [8] 0.07 | [9] 0.125 | [10] 0.008

NUDT15 (UniProt Q9NV35)
inactive: [1] -0.019 | [2] 0.06 | [3] -0.035 | [4] -0.009 | [5] 0.027 | [6] 0.006 | [7] 0.03 | [8] 0.032 | [9] -0.004 | [10] -0.042

NUCB1 (UniProt Q02818)
inactive: [1] 0.024 | [2] 0.003 | [3] 0.019 | [4] 0.004 | [5] 0.007 | [6] -0.025 | [7] 0.007 | [8] -0.004 | [9] -0.02 | [10] 0.022

NOMO3 (UniProt P69849)
inactive: [1] 0.036 | [2] -0.323 | [3] -0.15 | [4] -0.053 | [5] -0.029 | [6] -0.043 | [7] -0.122 | [8] -0.049 | [9] -0.037 | [10] -0.178

Eight neighbouring records already listed:
NUMB (UniProt P49757)
inactive: [1] -0.03 | [2] -0.024 | [3] -0.072 | [4] -0.008 | [5] 0.001 | [6] -0.02 | [7] 0.001 | [8] -0.029 | [9] -0.026 | [10] 0.003

NTPCR (UniProt Q9BSD7)
inactive: [1] 0.019 | [2] -0.01 | [3] -0.061 | [4] 0.056 | [5] 0.032 | [6] -0.088 | [7] 0.003 | [8] 0.028 | [9] 0.017 | [10] -0.027

NOP10 (UniProt Q9NPE3)
inactive: [1] -0.067 | [2] -0.044 | [3] 0.027 | [4] -0.018 | [5] 0.022 | [6] 0.04 | [7] 0.062 | [8] -0.03 | [9] 0.027 | [10] 0.075

NOL10 (UniProt Q9BSC4)
inactive: [1] -0.17 | [2] -0.096 | [3] -0.025 | [4] 0.022 | [5] 0.077 | [6] 0.006 | [7] 0.038 | [8] 0.019 | [9] 0.007 | [10] 0.175

NNMT (UniProt P40261)
inactive: [1] -0.044 | [2] -0.01 | [3] 0.058 | [4] 0.03 | [5] 0.003 | [6] -0.145 | [7] -0.008 | [8] 0.004 | [9] 0.035 | [10] -0.033

NPEPPS (UniProt P55786)
inactive: [1] 0.01 | [2] 0.005 | [3] 0.01 | [4] 0.008 | [5] 0.007 | [6] 0.001 | [7] 0.001 | [8] -0.001 | [9] -0.003 | [10] 0.012

NME2P1 (UniProt O60361)
inactive: [1] -0.121 | [2] -0.037 | [3] -0.016 | [4] -0.09 | [5] 0.039 | [6] -0.629 | [7] -0.076 | [8] 0.07 | [9] 0.125 | [10] 0.008

NUDT15 (UniProt Q9NV35)
inactive: [1] -0.019 | [2] 0.06 | [3] -0.035 | [4] -0.009 | [5] 0.027 | [6] 0.006 | [7] 0.03 | [8] 0.032 | [9] -0.004 | [10] -0.042

Later entries:

NSMAF (UniProt Q92636)
inactive: [1] -0.003 | [2] -0.021 | [3] -0.059 | [4] 0.006 | [5] -0.061 | [6] -0.138 | [7] -0.003 | [8] 0.027 | [9] -0.02 | [10] 0.01

NME3 (UniProt Q13232)
inactive: [1] 0.078 | [2] 0.006 | [3] 0.108 | [4] -0.01 | [5] 0.051 | [6] 0 | [7] -0.008 | [8] 0.009 | [9] -0.006 | [10] -0.038

NPM1 (UniProt P06748)
inactive: [1] 0.016 | [2] -0.017 | [3] 0.028 | [4] -0.004 | [5] -0.024 | [6] 0.039 | [7] 0.032 | [8] -0.007 | [9] 0 | [10] 0.035

NUDT5 (UniProt Q9UKK9)
inactive: [1] 0.021 | [2] 0 | [3] 0.045 | [4] 0.008 | [5] -0.024 | [6] -0.016 | [7] -0.013 | [8] -0.018 | [9] -0.013 | [10] -0.014

NME2 isoform 2 (UniProt P22392)
inactive: [1] 0.021 | [2] 0.001 | [3] 0.015 | [4] -0.005 | [5] -0.01 | [6] -0.009 | [7] 0.025 | [8] -0.009 | [9] -0.017 | [10] 0

NPM3 (UniProt O75607)
inactive: [1] -0.039 | [2] -0.012 | [3] 0.065 | [4] 0.049 | [5] 0.024 | [6] -0.024 | [7] -0.027 | [8] 0.019 | [9] 0.03 | [10] -0.029

NSMCE1 (UniProt Q8WV22)
inactive: [1] 0.018 | [2] -0.001 | [3] 0.013 | [4] -0.028 | [5] 0.001 | [6] -0.024 | [7] -0.042 | [8] 0.008 | [9] 0.006 | [10] 0.03

NOL7 (UniProt Q9UMY1)
inactive: [1] 0.038 | [2] 0.005 | [3] 0.053 | [4] 0 | [5] -0.007 | [6] -0.049 | [7] -0.032 | [8] -0.019 | [9] 0.01 | [10] 0.042

NUDT16L1 (UniProt Q9BRJ7)
inactive: [1] -0.033 | [2] 0.043 | [3] 0.035 | [4] -0.002 | [5] -0.058 | [6] 0.105 | [7] 0.017 | [8] 0.025 | [9] 0.006 | [10] 0.021

NT5C2 (UniProt P49902)
inactive: [1] 0.021 | [2] -0.01 | [3] 0.003 | [4] 0.013 | [5] 0 | [6] -0.013 | [7] 0.039 | [8] 0.015 | [9] -0.01 | [10] -0.023

NOL6 (UniProt Q9H6R4)
inactive: [1] 0.015 | [2] 0.007 | [3] 0.005 | [4] 0.053 | [5] 0 | [6] -0.02 | [7] -0.065 | [8] 0.075 | [9] 0.05 | [10] -0.022

NRBP2 (UniProt Q9NSY0)
inactive: [1] -0.065 | [2] -0.027 | [3] 0.007 | [4] -0.008 | [5] 0.065 | [6] -0.104 | [7] -0.034 | [8] 0.047 | [9] -0.013 | [10] -0.011

NSUN4 (UniProt Q96CB9)
inactive: [1] 0.022 | [2] -0.018 | [3] -0.029 | [4] -0.059 | [5] -0.083 | [6] 0.019 | [7] 0.132 | [8] 0.03 | [9] -0.082 | [10] 0.018

NRDC isoform 2 (UniProt O43847)
inactive: [1] 0.001 | [2] 0 | [3] -0.013 | [4] 0.007 | [5] 0.005 | [6] 0.007 | [7] 0.005 | [8] 0.007 | [9] -0.01 | [10] 0.002

NT5DC3 (UniProt Q86UY8)
inactive: [1] -0.01 | [2] 0.008 | [3] 0.037 | [4] 0.044 | [5] 0.024 | [6] -0.046 | [7] 0.003 | [8] 0.007 | [9] -0.002 | [10] -0.016

NOA1 (UniProt Q8NC60)
inactive: [1] -0.041 | [2] -0.012 | [3] -0.05 | [4] -0.011 | [5] -0.036 | [6] -0.089 | [7] -0.027 | [8] 0.059 | [9] 0.04 | [10] -0.001

NOC2L (UniProt Q9Y3T9)
inactive: [1] 0.027 | [2] 0.022 | [3] -0.03 | [4] -0.046 | [5] -0.052 | [6] -0.082 | [7] -0.087 | [8] 0.058 | [9] 0.014 | [10] -0.019

Source: the supplement of paper PMC10849652
